Source: PubChem BioAssay AID504808 (Drosophila RNAi Screening Center, 2011)
In all, the deposit lists about 21,000 reagents; this is an unselected part of those that have a named target and a result. In the full data, 18 (0.084%) are marked active. 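Raw counts without plate normalisation, one of two replicates; the ratio scores behind the calls were not deposited.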 The numbers tell different reagents against one gene apart. A plus sign joins genes that one reagent is predicted to hit. Not given: the amount of reagent, the time to read-out.

Test: 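Fly genes required to hold E2F transcription in check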 (primary screen)
System: Drosophila S2 cells
Reagents: long dsRNA against Drosophila genes
Measurement: 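Dual luciferase plate measurements; E2F-specific signal taken as firefly over Renilla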
Reading the numbers: E2F firefly: higher = more E2F reporter activity; Renilla normaliser: higher = more normaliser reporter signal
Call rule: 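a knock-down counted as active when the firefly/Renilla E2F signal rose above 50%, a threshold chosen arbitrarily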

Against TotA the deposit lists E2F firefly, rep 1 = 80075; Renilla normaliser, rep 1 = 2583; inactive.
For CG8927 the deposit lists E2F firefly, rep 1 = 1.12e5; Renilla normaliser, rep 1 = 6529; inactive.
With knock-down of CG6195 the results were E2F firefly, rep 1 = 1.57e5; Renilla normaliser, rep 1 = 7856; inactive.
Silencing of Twdlbeta resulted in: E2F firefly, rep 1 = 91457; Renilla normaliser, rep 1 = 3753; inactive.
Ir100a scored E2F firefly, rep 1 = 89929; Renilla normaliser, rep 1 = 4928; inactive.
After knock-down of CG30380, the record shows E2F firefly, rep 1 = 1.40e5; Renilla normaliser, rep 1 = 5247; inactive.
Silencing of CtsL1 #1 came out at: E2F firefly, rep 1 = 1.34e5; Renilla normaliser, rep 1 = 4966; inactive.
Silencing of CtsL1 #2 gave: E2F firefly, rep 1 = 2963; Renilla normaliser, rep 1 = 219; inactive.
Depletion of alpha-Est6 came out at: E2F firefly, rep 1 = 77849; Renilla normaliser, rep 1 = 3032; inactive.
With knock-down of Tsf3, the record shows E2F firefly, rep 1 = 75470; Renilla normaliser, rep 1 = 3399; inactive.
After knock-down of CG11286, the record shows E2F firefly, rep 1 = 1.53e5; Renilla normaliser, rep 1 = 7432; inactive.
Depletion of CLIP-190 gave: E2F firefly, rep 1 = 77951; Renilla normaliser, rep 1 = 3547; inactive.

Targets listed so far whose gene name begins with T or t (3):
TotA | E2F firefly, rep 1: 80075; Renilla normaliser, rep 1: 2583; Outcome: inactive
Twdlbeta | E2F firefly, rep 1: 91457; Renilla normaliser, rep 1: 3753; Outcome: inactive
Tsf3 | E2F firefly, rep 1: 75470; Renilla normaliser, rep 1: 3399; Outcome: inactive

The results go on:
Knock-down of CNMaR #1 came out at: E2F firefly, rep 1 = 1.26e5; Renilla normaliser, rep 1 = 4324; inactive.
CNMaR #2 showed E2F firefly, rep 1 = 1.18e5; Renilla normaliser, rep 1 = 5653; inactive.
Depletion of CG12316 gave: E2F firefly, rep 1 = 66548; Renilla normaliser, rep 1 = 3945; inactive.
Against CG3687, the values are E2F firefly, rep 1 = 1.43e5; Renilla normaliser, rep 1 = 4771; inactive.
Knock-down of side-IV + CG17025 (retired record) came out at: E2F firefly, rep 1 = 1.13e5; Renilla normaliser, rep 1 = 5994; inactive.
CG10345 showed E2F firefly, rep 1 = 76336; Renilla normaliser, rep 1 = 3523; inactive.
Against AOX2 the deposit lists E2F firefly, rep 1 = 1.20e5; Renilla normaliser, rep 1 = 6355; inactive.
CNBP #1 gave E2F firefly, rep 1 = 1.08e5; Renilla normaliser, rep 1 = 4972; inactive.
Against CNBP #2, the entry reads E2F firefly, rep 1 = 75387; Renilla normaliser, rep 1 = 3333; inactive.
Silencing of loqs came out at: E2F firefly, rep 1 = 1.04e5; Renilla normaliser, rep 1 = 4258; inactive.
ThrRS scored E2F firefly, rep 1 = 92474; Renilla normaliser, rep 1 = 3926; inactive.
Depletion of NimC4 came out at: E2F firefly, rep 1 = 1.02e5; Renilla normaliser, rep 1 = 4836; inactive.
CG10598 scored E2F firefly, rep 1 = 2.14e5; Renilla normaliser, rep 1 = 5890; inactive.
pho showed E2F firefly, rep 1 = 1.31e5; Renilla normaliser, rep 1 = 7543; inactive.
Depletion of CG5554 gave: E2F firefly, rep 1 = 87407; Renilla normaliser, rep 1 = 4261; inactive.
Bsg #1 scored E2F firefly, rep 1 = 1.27e5; Renilla normaliser, rep 1 = 5047; inactive.
With knock-down of Bsg #2, the screen gave E2F firefly, rep 1 = 1.44e5; Renilla normaliser, rep 1 = 5503; inactive.
Depletion of Gp210 #1 came out at: E2F firefly, rep 1 = 1.20e5; Renilla normaliser, rep 1 = 4878; inactive.
Gp210 #2 showed E2F firefly, rep 1 = 97354; Renilla normaliser, rep 1 = 3710; inactive.
Depletion of Wdr33 came out at: E2F firefly, rep 1 = 69043; Renilla normaliser, rep 1 = 3273; inactive.
CG3732 showed E2F firefly, rep 1 = 94800; Renilla normaliser, rep 1 = 3719; inactive.
With knock-down of GstD10, the screen gave E2F firefly, rep 1 = 1.48e5; Renilla normaliser, rep 1 = 6833; inactive.
CG30496 scored E2F firefly, rep 1 = 4198; Renilla normaliser, rep 1 = 110; inactive.
After knock-down of Edg78E, the screen gave E2F firefly, rep 1 = 1.29e5; Renilla normaliser, rep 1 = 6611; inactive.
